Assay [1] deals with AT-rich interaction domain protein 1A (ARID1A) (human (endogenous in the paper's human cell lines; the line used for the IP is not stated)), O14497. Put plainly: affinity purification with mass spectrometry; IP with anti-ARID1A (anti-IgG as control) from 1.5-2 mg benzonase-treated nuclear lysate (300 mM NaCl, 20 mM HEPES pH 7.5), protein A/G magnetic beads, washes with TBST; on-bead digest, label-free quantification, FDR <0.05, log2 fold change >2. As to conditions: remark: other sources report otherwise.

By UniProt entry, the sequences of proteins in these tests, tags left out.
UniProt O14497: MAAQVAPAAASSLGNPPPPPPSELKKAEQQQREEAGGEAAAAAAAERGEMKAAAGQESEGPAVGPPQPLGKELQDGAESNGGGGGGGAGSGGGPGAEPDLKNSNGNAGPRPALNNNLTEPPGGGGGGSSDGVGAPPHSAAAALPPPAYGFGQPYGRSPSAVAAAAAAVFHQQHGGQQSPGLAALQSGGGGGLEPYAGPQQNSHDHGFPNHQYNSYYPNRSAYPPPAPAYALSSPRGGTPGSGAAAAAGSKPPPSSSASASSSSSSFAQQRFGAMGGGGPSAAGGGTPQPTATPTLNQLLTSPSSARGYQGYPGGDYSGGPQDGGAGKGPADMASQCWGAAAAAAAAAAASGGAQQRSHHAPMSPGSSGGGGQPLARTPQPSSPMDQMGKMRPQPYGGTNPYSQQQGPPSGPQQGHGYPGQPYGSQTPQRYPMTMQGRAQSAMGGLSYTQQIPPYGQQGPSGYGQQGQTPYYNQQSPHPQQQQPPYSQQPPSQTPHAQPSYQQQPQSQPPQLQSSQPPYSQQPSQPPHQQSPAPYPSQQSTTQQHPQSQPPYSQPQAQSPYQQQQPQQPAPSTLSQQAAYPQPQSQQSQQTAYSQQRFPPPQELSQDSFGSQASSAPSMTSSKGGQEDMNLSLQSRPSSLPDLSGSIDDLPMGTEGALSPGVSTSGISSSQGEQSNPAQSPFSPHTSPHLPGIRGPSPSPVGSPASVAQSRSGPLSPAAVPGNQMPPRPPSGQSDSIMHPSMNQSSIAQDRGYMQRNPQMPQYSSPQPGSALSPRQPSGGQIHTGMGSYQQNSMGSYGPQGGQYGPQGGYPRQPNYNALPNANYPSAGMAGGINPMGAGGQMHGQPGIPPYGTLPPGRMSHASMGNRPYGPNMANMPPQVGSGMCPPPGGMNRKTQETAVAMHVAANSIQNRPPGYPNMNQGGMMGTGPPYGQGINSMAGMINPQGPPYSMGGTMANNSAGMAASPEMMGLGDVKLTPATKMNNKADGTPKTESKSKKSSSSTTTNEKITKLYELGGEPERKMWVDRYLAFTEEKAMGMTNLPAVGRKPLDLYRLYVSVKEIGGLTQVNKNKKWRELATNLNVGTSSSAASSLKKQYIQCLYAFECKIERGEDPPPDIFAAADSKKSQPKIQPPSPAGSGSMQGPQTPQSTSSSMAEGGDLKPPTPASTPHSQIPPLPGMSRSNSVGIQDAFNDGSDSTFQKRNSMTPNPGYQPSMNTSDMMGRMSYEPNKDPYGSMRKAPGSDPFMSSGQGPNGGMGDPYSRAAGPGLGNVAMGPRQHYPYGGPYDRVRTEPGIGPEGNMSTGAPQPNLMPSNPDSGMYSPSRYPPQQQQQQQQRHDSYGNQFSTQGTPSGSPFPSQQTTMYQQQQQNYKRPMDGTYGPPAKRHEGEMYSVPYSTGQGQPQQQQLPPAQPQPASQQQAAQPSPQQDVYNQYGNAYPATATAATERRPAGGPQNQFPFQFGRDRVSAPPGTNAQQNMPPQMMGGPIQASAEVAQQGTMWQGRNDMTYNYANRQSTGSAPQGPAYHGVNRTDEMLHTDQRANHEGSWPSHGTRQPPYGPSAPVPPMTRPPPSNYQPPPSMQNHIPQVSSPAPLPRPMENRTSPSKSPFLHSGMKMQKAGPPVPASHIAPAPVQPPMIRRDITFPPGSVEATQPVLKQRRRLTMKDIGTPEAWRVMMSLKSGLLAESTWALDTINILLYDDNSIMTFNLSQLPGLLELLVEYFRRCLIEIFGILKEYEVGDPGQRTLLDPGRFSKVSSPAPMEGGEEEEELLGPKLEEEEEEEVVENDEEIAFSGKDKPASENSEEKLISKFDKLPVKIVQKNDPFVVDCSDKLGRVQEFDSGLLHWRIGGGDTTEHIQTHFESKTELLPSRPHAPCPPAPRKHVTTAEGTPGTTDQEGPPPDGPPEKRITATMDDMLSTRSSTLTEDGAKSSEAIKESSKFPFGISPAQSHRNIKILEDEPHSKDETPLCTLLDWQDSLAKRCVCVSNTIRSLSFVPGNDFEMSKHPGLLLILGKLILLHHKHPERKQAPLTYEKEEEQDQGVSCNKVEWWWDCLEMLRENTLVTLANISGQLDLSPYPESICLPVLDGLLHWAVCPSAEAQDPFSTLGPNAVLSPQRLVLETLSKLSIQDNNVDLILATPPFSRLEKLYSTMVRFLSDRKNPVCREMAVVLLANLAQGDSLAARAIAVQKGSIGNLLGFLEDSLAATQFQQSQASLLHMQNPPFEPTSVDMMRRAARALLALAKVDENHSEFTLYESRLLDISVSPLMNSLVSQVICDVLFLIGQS

For assay [2], the target named is AT-rich interaction domain protein 1A (ARID1A) (human (endogenous in the paper's human cell lines; the line used for the IP is not stated)) (UniProt O14497). The description is as above.

These are yes or no findings as the source states them, for the method shown. Binding seen in cells or lysates may run through a third protein. Here binding means that the protein was enriched with, or labelled near, the bait; the list need not be complete.

For three molecules, binding results are on record in paper PMC11162808.

B1: CTCF insulator protein, P49711 1-727 (protein)
chain: MEGDAVEAIVEESETFIKGKERKTYQRRREGGQEEDACHLPQNQTDGGEVVQDVNSSVQMVMMEQLDPTLLQMKTEVMEGTVAPEAEAAVDDTQIITLQVVNMEEQPINIGELQLVQVPVPVTVPVATTSVEELQGAYENEVSKEGLAESEPMICHTLPLPEGFQVVKVGANGEVETLEQGELPPQEDPSWQKDPDYQPPAKKTKKTKKSKLRYTEEGKDVDVSVYDFEEEQQEGLLSEVNAEKVVGNMKPPKPTKIKKKGVKKTFQCELCSYTCPRRSNLDRHMKSHTDERPHKCHLCGRAFRTVTLLRNHLNTHTGTRPHKCPDCDMAFVTSGELVRHRRYKHTHEKPFKCSMCDYASVEVSKLKRHIRSHTGERPFQCSLCSYASRDTYKLKRHMRTHSGEKPYECYICHARFTQSGTMKMHILQKHTENVAKFHCPHCDTVIARKSDLGVHLRKQHSYIEQGKKCRYCDAVFHERYALIQHQKSHKNEKRFKCDQCDYACRQERHMIMHKRTHTGEKPYACSHCDKTFRQKQLLDMHFKRYHDPNFVPAAFVCSKCGKTFTRRNTMARHADNCAGPDGVEGENGGETKKSKRGRKRKMRSKKEDSSDSENAEPDLDDNEDEEEPAVEIEPEPEPQPVTPAPPPAKKRRGRPPGRTNQPKQNQPTAIIQVEDQNTGAIENIIVEVKKEPDAEPAEGEEEEAQPAATDAPNGDLTPEMILSMMDR
For B1, the binding result in assay [1] is on record as “binds”.

B2: RSF1 (protein, UniProt Q96T23 1-1441)
chain: MATAAAAAAVMAPPGCPGSCPNFAVVCSFLERYGPLLDLPELPFPELERVLQAPPPDVGNGEVPKELVELHLKLMRKIGKSVTADRWEKYLIKICQEFNSTWAWEMEKKGYLEMSVECKLALLKYLCECQFDDNLKFKNIINEEDADTMRLQPIGRDKDGLMYWYQLDQDHNVRMYIEEQDDQDGSSWKCIVRNRNELAETLALLKAQIDPVLLKNSSQQDNSSRESPSLEDEETKKEEETPKQEEQKESEKMKSEEQPMDLENRSTANVLEETTVKKEKEDEKELVKLPVIVKLEKPLPENEEKKIIKEESDSFKENVKPIKVEVKECRADPKDTKSSMEKPVAQEPERIEFGGNIKSSHEITEKSTEETEKLKNDQQAKIPLKKREIKLSDDFDSPVKGPLCKSVTPTKEFLKDEIKQEEETCKRISTITALGHEGKQLVNGEVSDERVAPNFKTEPIETKFYETKEESYSPSKDRNIITEGNGTESLNSVITSMKTGELEKETAPLRKDADSSISVLEIHSQKAQIEEPDPPEMETSLDSSEMAKDLSSKTALSSTESCTMKGEEKSPKTKKDKRPPILECLEKLEKSKKTFLDKDAQRLSPIPEEVPKSTLESEKPGSPEAAETSPPSNIIDHCEKLASEKEVVECQSTSTVGGQSVKKVDLETLKEDSEFTKVEMDNLDNAQTSGIEEPSETKGSMQKSKFKYKLVPEEETTASENTEITSERQKEGIKLTIRISSRKKKPDSPPKVLEPENKQEKTEKEEEKTNVGRTLRRSPRISRPTAKVAEIRDQKADKKRGEGEDEVEEESTALQKTDKKEILKKSEKDTNSKVSKVKPKGKVRWTGSRTRGRWKYSSNDESEGSGSEKSSAASEEEEEKESEEAILADDDEPCKKCGLPNHPELILLCDSCDSGYHTACLRPPLMIIPDGEWFCPPCQHKLLCEKLEEQLQDLDVALKKKERAERRKERLVYVGISIENIIPPQEPDFSEDQEEKKKDSKKSKANLLERRSTRTRKCISYRFDEFDEAIDEAIEDDIKEADGGGVGRGKDISTITGHRGKDISTILDEERKENKRPQRAAAARRKKRRRLNDLDSDSNLDEEESEDEFKISDGSQDEFVVSDENPDESEEDPPSNDDSDTDFCSRRLRRHPSRPMRQSRRLRRKTPKKKYSDDDEEEESEENSRDSESDFSDDFSDDFVETRRRRSRRNQKRQINYKEDSESDGSQKSLRRGKEIRRVHKRRLSSSESEESYLSKNSEDDELAKESKRSVRKRGRSTDEYSEADEEEEEEEGKPSRKRLHRIETDEEESCDNAHGDANQPARDSQPRVLPSEQESTKKPYRIESDEEEDFENVGKVGSPLDYSLVDLPSTNGQSPGKAIENLIGKPTEKSQTPKDNSTASASLASNGTSGGQEAGAPEEEEDELLRVTDLVDYVCNSEQL
Turning to B2, in assay [2], the binding entry is “binds”.

B3: SCC1/RAD21, O60216 1-631 (protein)
chain: MFYAHFVLSKRGPLAKIWLAAHWDKKLTKAHVFECNLESSVESIISPKVKMALRTSGHLLLGVVRIYHRKAKYLLADCNEAFIKIKMAFRPGVVDLPEENREAAYNAITLPEEFHDFDQPLPDLDDIDVAQQFSLNQSRVEEITMREEVGNISILQENDFGDFGMDDREIMREGSAFEDDDMLVSTTTSNLLLESEQSTSNLNEKINHLEYEDQYKDDNFGEGNDGGILDDKLISNNDGGIFDDPPALSEAGVMLPEQPAHDDMDEDDNVSMGGPDSPDSVDPVEPMPTMTDQTTLVPNEEEAFALEPIDITVKETKAKRKRKLIVDSVKELDSKTIRAQLSDYSDIVTTLDLAPPTKKLMMWKETGGVEKLFSLPAQPLWNNRLLKLFTRCLTPLVPEDLRKRRKGGEADNLDEFLKEFENPEVPREDQQQQHQQRDVIDEPIIEEPSRLQESVMEASRTNIDESAMPPPPPQGVKRKAGQIDPEPVMPPQQVEQMEIPPVELPPEEPPNICQLIPELELLPEKEKEKEKEKEDDEEEEDEDASGGDQDQEERRWNKRTQQMLHGLQRALAKTGAESISLLELCRNTNRKQAAAKFYSFLVLKKQQAIELTQEEPYSDIIATPGPRFHII
In the case of B3, the binding entry in assay [1] was “binds”.
